For two molecules, binding results are on record in article PMC10942982.

Holding throughout (experiment): co-IP; GFP-Trap beads on total cell lysates in 0.5% NP-40 lysis buffer (10 mM Tris/Cl pH 7.5, 150 mM NaCl, 0.5 mM EDTA), washed three times with lysis buffer, immunoblotting
In general terms: Immunoblotting shows a protein as a band on a membrane.

Assay [1] addresses GFP-tagged VPS37A mutant with both 3WLFP and 137FPYL motifs mutated to DDDD (human) (UniProt Q8NEZ2).
Assay [2] has as its target GFP-tagged wildtype VPS37A (human) (UniProt Q8NEZ2).
In assay [3] the target is T1, GFP-tagged wildtype VPS37A (human), Q8NEZ2.
T1 chain: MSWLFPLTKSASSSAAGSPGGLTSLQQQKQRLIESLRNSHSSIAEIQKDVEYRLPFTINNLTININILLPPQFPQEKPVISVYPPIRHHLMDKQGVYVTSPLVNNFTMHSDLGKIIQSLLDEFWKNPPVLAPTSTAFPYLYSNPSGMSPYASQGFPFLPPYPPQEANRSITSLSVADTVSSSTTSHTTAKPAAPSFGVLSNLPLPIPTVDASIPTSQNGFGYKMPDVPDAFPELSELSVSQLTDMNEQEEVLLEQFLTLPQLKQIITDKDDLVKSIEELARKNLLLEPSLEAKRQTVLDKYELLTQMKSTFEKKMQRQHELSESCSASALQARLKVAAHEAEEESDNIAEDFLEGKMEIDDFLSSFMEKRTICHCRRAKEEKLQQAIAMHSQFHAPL
To be noted: remark: other sources report otherwise.

These are yes or no findings as the source states them, for the method shown. Binding seen in cells or lysates may run through a third protein. Some entries that bind do so weakly or less than the wild type. For part of these data: Sequences can lack the tags named with a protein.

B1: UBAP1 (protein, UniProt Q9NZ09 1-502)
chain: MASKKLGADFHGTFSYLDDVPFKTGDKFKTPAKVGLPIGFSLPDCLQVVREVQYDFSLEKKTIEWAEEIKKIEEAEREAECKIAEAEAKVNSKSGPEGDSKMSFSKTHSTATMPPPINPILASLQHNSILTPTRVSSSATKQKVLSPPHIKADFNLADFECEEDPFDNLELKTIDEKEELRNILVGTTGPIMAQLLDNNLPRGGSGSVLQDEEVLASLERATLDFKPLHKPNGFITLPQLGNCEKMSLSSKVSLPPIPAVSNIKSLSFPKLDSDDSNQKTAKLASTFHSTSCLRNGTFQNSLKPSTQSSASELNGHHTLGLSALNLDSGTEMPALTSSQMPSLSVLSVCTEESSPPNTGPTVTPPNFSVSQVPNMPSCPQAYSELQMLSPSERQCVETVVNMGYSYECVLRAMKKKGENIEQILDYLFAHGQLCEKGFDPLLVEEALEMHQCSEEKMMEFLQLMSKFKEMGFELKDIKEVLLLHNNDQDNALEDLMARAGAS
On to B1, for which the binding result in assay [1] and in assay [2] was “binds” each time.

B2: VPS28, Q9UK41 1-221 (protein)
chain: MFHGIPATPGIGAPGNKPELYEEVKLYKNAREREKYDNMAELFAVVKTMQALEKAYIKDCVSPSEYTAACSRLLVQYKAAFRQVQGSEISSIDEFCRKFRLDCPLAMERIKEDRPITIKDDKGNLNRCIADVVSLFITVMDKLRLEIRAMDEIQPDLRELMETMHRMSHLPPDFEGRQTVSQWLQTLSGMSASDELDDSQVRQMLFDLESAYNAFNRFLHA
Consider B2, for which the binding entry in assay [3] was “binds”.
